Data from paper PMC4770243.
These are yes or no findings as the source states them, for the method shown. Binding can be weak; no strength is given.

Protein sequences, listed by entry. Tags and fused reporters are not part of them. Lines headed by an entry give the natural chain unless they say otherwise; changes in a name come on top.
UniProt Q97YA4: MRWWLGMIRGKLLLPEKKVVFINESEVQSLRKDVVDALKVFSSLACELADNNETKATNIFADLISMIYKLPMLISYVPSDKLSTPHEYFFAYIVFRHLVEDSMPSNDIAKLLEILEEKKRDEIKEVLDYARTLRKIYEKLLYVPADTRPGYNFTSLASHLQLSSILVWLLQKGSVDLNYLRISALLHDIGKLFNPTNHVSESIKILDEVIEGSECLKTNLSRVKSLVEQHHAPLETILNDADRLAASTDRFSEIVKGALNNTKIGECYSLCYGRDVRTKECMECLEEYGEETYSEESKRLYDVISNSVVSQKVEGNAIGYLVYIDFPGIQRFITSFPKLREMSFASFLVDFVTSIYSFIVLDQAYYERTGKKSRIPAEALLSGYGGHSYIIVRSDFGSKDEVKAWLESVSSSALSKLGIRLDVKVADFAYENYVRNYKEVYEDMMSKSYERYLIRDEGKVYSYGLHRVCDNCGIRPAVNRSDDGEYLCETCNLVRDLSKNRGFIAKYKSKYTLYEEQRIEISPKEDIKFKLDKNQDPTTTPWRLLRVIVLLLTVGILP

Biological target: Sso1428, the large subunit (Csm1/Cas10) of the Sso-IIID complex (Sulfolobus solfataricus) (UniProt Q97YA4)
Assay: SEC; individually purified subunits Sso1424, Sso1425, Sso1426, Sso1427, Sso1428, Sso1430, Sso1431, Sso1432 and a defined crRNA mixed at 3:1:4:1:1:1:1:1:1 in 20 mM MES pH 6.0, 100 mM NaCl, 0.1 mg/ml BSA, 2 mM MgCl2, 45°C for 30 min; reconstituted complex purified by size exclusion chromatography; both purified

B1: Sso1424, small subunit of the Sso-IIID complex (protein, UniProt Q97YA8 1-139)
chain: MRVKHYIQREFNYSVSSQDLLDIATRIAISAIKPKPKSNKPEPYVDSSTINSLLSFLQSRRNVNELLLYIMRQAGRDEIDEETGKLLLASLKDRELKDAVNLLGYVKWVYDTLTGLKVNYNNVKGVKTFKELVNILSKV
In the case of B1, the binding is reported as “binds”.

B2: Sso1425, Cas7-like subunit of the Sso-IIID complex (protein, UniProt Q97YA7 1-250)
chain: MKMSCMDLDVITTVVKIEGKLRNETLLRVGKGKTQDFAEATDNPIIKYRDRPLIPGSSLKGAFRSLVESYTKSLNDSKYYVCDLDDNSCVSCEEKKKDNGIVEGRYCIPCILFGFKDLASRVYILDAIAEKYSISQRTMVAINRVFGGQMPGHLYTLDYVDPGSEFSFMMMIYNLNLIEGEKDWKAKSVEALKFLLATLVREGIFVGARKSVGYGLIKLVDAKVSLYKAPDHLVSPVIVKKLEEVIGTNG
With B2 the binding was “binds”.

B3: Sso1426, Cas7-like subunit of the Sso-IIID complex (protein, UniProt Q97YA6 1-281)
chain: MVLMVNYTFIDKRVIKRTTMIEGDVETVSPLKIGGGKDNFDPSSLAKDSILKDVEGRPIIPGSSWKGIFRSTGERILRLRNIEVCSGIGKDYCLNNNRKERDFNSALKENVDQALEIFWDYTCLNCKVFGTMSVIGAVRFLDSLPISYSLNTRSMIAISRTEGAVARRALVTVEYVDVGSKFSFKMMGYNLPNYAIGYLITIMKNIHDGFTQVGGHKSRGFGFVKFGKVKFTDLGEKRIGDEDIQVKDVGDLVEGNGDEFFGRMKPFMEAFNNAKIPYPKK
B3 was tested, and the binding was “binds”.

B4: Sso1427, Cas7-like subunit of the Sso-IIID complex (protein, UniProt Q97YA5 1-275)
chain: MQRSPIRRSNYTPRNEKGLEGVIELQLNVVSDYLHVGSGKYDVEVMRSVSDVKRLVEDYLSGGNKRIPNNVDQYFSMVAFLMVRNKDNVVIPGSTIKGMVRSRLELSVPGSCYIVTGHSTSSSAVYKRIFNPDPNRGSDRFDVNKFPQVCPVCDLLGNMGLASRVSLSDFVMTSGKVDYVNVKGRDYEVVTKGSIFAGKVLYKSLKPVEIGMLLYGFGFVKDCNGSKVMLLGRFKFSDKRFGRVKFSLKTPIADCNKLVSDFVKQFNPRYINEEW
In the case of B4, the binding is reported as “binds”.

B5: Sso1430, subunit of the Sso-IIID complex (protein, UniProt Q97YA2 1-206)
chain: MIPIKVSMRNLSSLTIAGGSTISSIDIPLNPLGVPPSTIKGTMRTAVHNLLPNGYTSCGEVEPESIREAHKNGVCDVCKLFGYPDSLTGCFTIDVSKTDYRTSYITRVSIDDKTQRAKEGSLFTQQIILPNSDISFTVYYNCNDERLFKLLLYSILDLRYWRLGRNTMIDVKVNNVEEICKSVKCDEEINGILNQLSRYLWEAENK
With B5 the binding was “binds”.

B6: Sso1431 (Csm4/Cas5-like), subunit of the Sso-IIID complex (protein, UniProt Q97YA1 1-304)
chain: MILIKLKVKGYITTQMRRIRNYYFSITNYIPSTTLRGAILAEYYNQTGKIDENFYVSPAYPIKTAPAHYFSPAKERKGDEFIEVKRILEKKEKEFEANKPIEEIMKLEIDGKHPKPKIGSLITYEGETDKENKYREFSSKSIIQMHVAIDKTSISSYKGMLFAYEYKEFDEMWAIASDSEVIDTVKRIKIGRGKNRGNKVVDVEKVREVSLDQSKGLLYCLSPCIGSLFGKTFFKAKYIIGDKSIYSGWFTVDSFSGQKPVFETLREGSLVYVESFSNEKSLMPAGLNFMLRISDLSSILNKVS
B6 was tested, and the binding was “binds”.

B7: Sso1432, subunit of the Sso-IIID complex (protein, UniProt Q97YA0 1-252)
chain: MVIQVFRLNFRLRTGFRVGGGQEVGDNVIRQLRIGVEGVMIPASSWKGMFRRVSEIVLNSEDHFEEHSKKEVDTRTINALLKSDEKFRRIAISKVGKEVITQNGINVDKLDSESLSDLRRIYNEYNCPIERLYGSNYFAGGITISDSVIPNASIMERTHVTIERKSKKASEKHLFSEEIIDAEKIEVKVIVRNEFELWKNSLKLLREIGYFIGGSKSRGIGYIVLDEKESEYAVINNFSETPKFSELKRYLS
For B7, the binding was “binds”.
